# Results deposited as PubChem BioAssay AID504774 (Drosophila RNAi Screening Center, 2011).
# Test: 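Genes required for cells to withstand methyl methanesulphonate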 (primary screen)
# System: Drosophila Kc167 cells
# Knock-down reagent: long dsRNA against Drosophila genes, about 0.25 µg dsRNA per well
# Time to read-out: about 6 days: 3 days knock-down, then 3 days with or without MMS
# Treatment: methyl methanesulphonate 0.004% (w/v) for 3 days after knock-down
# Read-out: 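ATP-dependent luminescence as a measure of live cells in MMS-exposed wells, quantile normalised within each plate, with replicate values also given as a mean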
# Reading the numbers: mean viability with MMS and viability with MMS: higher = more surviving cells after MMS
# In all, the deposit lists about 23,000 reagents; shown is a random part of those with a known target gene and a result. 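Values are quantile-normalised luminescence on an arbitrary scale; higher means more cells surviving MMS.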 Names joined by + are all predicted targets of the reagent. No sequences are given here.
Target gene,dsRNA,mean viability with MMS,"viability with MMS, replicate 1","viability with MMS, replicate 2"
mthl13,DRSC05238,3.58e6,4.01e6,4.08e6
CG3356,DRSC04358,3.69e6,4.05e6,4.14e6
Son,DRSC16400,3.70e6,4.14e6,4.12e6
Balat,DRSC06852,3.56e6,4.05e6,4.03e6
Mtap,DRSC06890,3.71e6,4.12e6,4.28e6
CG6067,DRSC18399,3.49e6,3.93e6,4.01e6
CG4860,DRSC15664,3.69e6,4.08e6,4.30e6
CG4860,DRSC21755,3.36e6,3.84e6,3.88e6
raskol,DRSC19202,3.50e6,4.00e6,3.96e6
raskol,DRSC19731,3.66e6,4.04e6,4.21e6
raskol,DRSC19964,3.60e6,4.05e6,4.10e6
raskol,DRSC19967,2.67e6,3.40e6,3.40e6
raskol,DRSC21788,3.48e6,3.92e6,4.01e6
rdgB,DRSC20365,1.81e6,4.08e6,3.89e6
CG31510,DRSC14182,3.50e6,3.87e6,4.04e6
CG8837,DRSC00711,3.63e6,4.09e6,4.10e6
SH3PX1,DRSC11139,3.55e6,3.93e6,4.11e6
Eip63F-1,DRSC08072,3.71e6,4.26e6,4.09e6
Eip63F-1,DRSC08659,3.59e6,3.94e6,4.19e6
rumpel,DRSC18436,3.52e6,3.99e6,4.01e6
Cap-H2,DRSC14908,3.54e6,3.92e6,4.11e6
St2,DRSC15142,3.51e6,3.90e6,4.07e6
St2,DRSC22624,3.51e6,3.99e6,3.99e6
sl,DRSC20377,3.32e6,3.95e6,3.52e6
sl,DRSC21782,3.30e6,3.79e6,3.83e6
Chchd2,DRSC19931,3.54e6,3.98e6,4.05e6
Sardh,DRSC06981,3.56e6,3.98e6,4.08e6
CG31815,DRSC01548,3.50e6,3.96e6,4.00e6
CG17258,DRSC00495,3.51e6,4.07e6,3.88e6
CG17258,DRSC22709,3.60e6,4.00e6,4.12e6
Ser7,DRSC18201,3.51e6,3.89e6,3.79e6
Ir75a,DRSC10188,3.55e6,3.99e6,4.06e6
Bx42,DRSC17743,2.40e6,2.92e6,2.89e6
dup,DRSC07088,2.28e6,2.86e6,2.86e6
CG15109,DRSC06536,3.54e6,4.12e6,3.91e6
CG9953,DRSC11106,3.44e6,3.90e6,3.90e6
CG17724,DRSC06687,3.32e6,3.68e6,3.83e6
CG14841,DRSC14965,3.60e6,3.98e6,4.20e6
mbc,DRSC16995,3.52e6,3.83e6,4.14e6
RpL22,DRSC18707,3.61e6,4.11e6,4.09e6
RpL22,DRSC22819,2.47e6,3.55e6,3.55e6
nompB,DRSC03701,3.38e6,3.84e6,3.77e6
nompB,DRSC03731,3.61e6,3.80e6,4.14e6
CG8952,DRSC20133,3.52e6,3.98e6,3.86e6
Shmt,DRSC18264,3.42e6,3.89e6,3.89e6
mei-W68,DRSC07649,3.52e6,4.02e6,3.95e6
Nup75,DRSC06947,3.17e6,3.66e6,3.70e6
CG1344,DRSC04837,3.36e6,3.85e6,3.76e6
CG8389,DRSC07158,3.60e6,4.04e6,4.13e6
CG8389,DRSC22855,3.56e6,4.08e6,3.98e6
Best4,DRSC10792,3.45e6,3.99e6,3.81e6
CG14568,DRSC11729,3.50e6,4.03e6,3.89e6
Mco3,DRSC15926,3.67e6,4.11e6,4.21e6
CG12241,DRSC14481,3.63e6,4.21e6,4.05e6
lncRNA:sphinx,DRSC17199,3.47e6,3.90e6,3.97e6
Os-C,DRSC16778,3.72e6,4.20e6,4.17e6
ghi,DRSC08985,3.48e6,3.95e6,3.95e6
CG34161,DRSC01132,3.48e6,3.96e6,3.93e6
CYTB (retired record),DRSC21272,3.47e6,3.95e6,3.95e6
CG4691,DRSC01950,3.56e6,3.88e6,4.22e6
Obp83b,DRSC12360,3.44e6,3.94e6,3.90e6
CG10116,DRSC09700,3.38e6,3.81e6,3.82e6
CG12502,DRSC08281,3.45e6,3.86e6,3.97e6
CG12502,DRSC23247,3.16e6,3.81e6,3.21e6
CG13855,DRSC14705,3.41e6,3.90e6,3.86e6
tos,DRSC03624,3.55e6,4.18e6,3.89e6
CG13538,DRSC04180,3.49e6,4.01e6,3.89e6
CG30058 + CG34235 + CG34312,DRSC05401,3.54e6,4.08e6,3.95e6
Acat1,DRSC17766,3.53e6,4.34e6,3.45e6
CG14221,DRSC19578,3.54e6,4.03e6,4.00e6
CG13046,DRSC09927,3.48e6,3.95e6,3.92e6
CG15143,DRSC02444,3.43e6,3.84e6,3.96e6
CG15530,DRSC15067,3.74e6,4.07e6,4.36e6
Ulp1,DRSC19339,3.59e6,4.06e6,4.12e6
Gar1,DRSC04441,3.36e6,3.82e6,3.73e6
Gr61a,DRSC08358,3.51e6,3.93e6,4.02e6
Hex-t2,DRSC22517,3.37e6,3.86e6,3.90e6
CG17717,DRSC18130,3.55e6,3.92e6,4.14e6
NitFhit,DRSC08680,3.56e6,4.07e6,3.98e6
CG14304,DRSC14783,3.36e6,3.97e6,3.70e6
CG13577,DRSC04213,3.69e6,4.08e6,4.27e6
CG14417,DRSC18638,3.53e6,3.87e6,4.13e6
CG31517,DRSC13010,3.57e6,3.99e6,4.11e6
CG14013,DRSC02344,3.46e6,3.90e6,3.94e6
CG17633,DRSC02631,3.55e6,4.02e6,4.06e6
CG13601,DRSC14604,3.26e6,3.71e6,3.75e6
SAK,DRSC11879,3.49e6,3.95e6,3.94e6
SAK,DRSC23329,3.70e6,4.18e6,4.22e6
